The name of at least one read-out is uncertain.
Key:
Rat = assay: Acute toxicity (LD50, Litchfield and Wilcoxon) in the rat; format: in vivo; conditions: os, female
Method: (§1) Acute toxicity of YS 795 was calculated in the rat and the mouse after both oral and intraperitoneal administrations.
(§2) LD50 was determined according to the method of Litchfield and Wilcoxon (J. Pharmacol. Exp. Therap. 96, 99-118, 1949).

Mouse = assay: Acute toxicity (LD50, Litchfield and Wilcoxon) in the mouse; format: in vivo; conditions: os, female
Method: as §1, §2

With `CCOC(=O)N1CSCC1C(=O)O` (centres unmarked) [YS 795, N-carbethoxy-4-thiazolidine-carboxylic acid] the DL50 (Rat) was > 4.000 mg/kg and the DL50 (Mouse) was > 4.000 mg/kg.
